Experimental data: the supplement of paper PMC11237882
Some of the results follow. Values are worked out from sequencing counts and are noisy.

T1: Homer1 EVH1 domain
T1 chain: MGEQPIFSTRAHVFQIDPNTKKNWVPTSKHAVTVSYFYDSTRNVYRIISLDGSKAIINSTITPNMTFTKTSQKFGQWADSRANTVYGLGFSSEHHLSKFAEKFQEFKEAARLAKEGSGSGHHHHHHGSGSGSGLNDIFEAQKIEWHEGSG


Molecular target: T1, Homer1 EVH1 domain
Assay: enrichment score (AUC of log2 frequency ratio across FACS sorting rounds) (log2 AUC); higher = stronger enrichment for Homer1 EVH1 binding

Question: Which enrichment score does the source give for PWVNHYSIFFVSVSFFIITAATVGYFIFYSARRLRN here?
Answer: 1.35

Question: With SETAAADAALGYIIAFLVLLSTVKLWHLLRLNPKMN as the binder, how does the enrichment score read?
Answer: 4.99

Question: For VVTLRLPGLESVDHYPILVAVTGILVQLLVRGPASE, which enrichment score is on record?
Answer: 1.36

Question: With SHKPDATGGRGLSRLEVAALVLGCLIPLILSVGHQH as the binder, how does the enrichment score read?
Answer: 4.17

Question: With MTSKFLLVSFILAALRLSTTFSLQPDQQKVLLVSFD as the binder, how does the enrichment score read?
Answer: 2.68

Question: Which enrichment score does the source give for MKNILGHAFYQLVVVFTLLFAGEKFFDIDSGRNAPL here?
Answer: 0.868

Question: Which enrichment score does the source give for MNSLSWGAANAVLLLLLLAWASPTFISINRGVRVMK here?
Answer: 3.11

Question: With QLIMDVKALTRVLFLYIPLPMFWALLDQQGSRWTLQ as the binder, how does the enrichment score read?
Answer: 1.47

Question: How did the enrichment score turn out when MAAPVRRTLLGVAGGWRRFERLWAGSLSSRSLALAD was run?
Answer: 2.47

Question: Which enrichment score does the source give for MLNLLLLALPVLASRAYAAPAPGQALQRVGIVGGQE here?
Answer: -2.05

Question: With MPNFTDVTEFTLLGLTCRQELQVLFFVVFLAVYMIT as the binder, how does the enrichment score read?
Answer: 2.54

Question: For LLVAGALTALLPSVKKDKMLMLRREIKSQGKSTMDS, which enrichment score is on record?
Answer: -1.88

Question: GVEQLEDYLNFANYLLWVFTPLILLILPYFTIFLLY was tested. Which enrichment score did it give?
Answer: 1.91

Question: For QAPSASHSSSLRPSQRRPRRPPTVFRLLEGRGPQTP, which enrichment score is on record?
Answer: -1.29

Question: SGLCRSVLTALLSGGLALLGALIWLCHFWCCSERWS was tested. Which enrichment score did it give?
Answer: 2.47

Question: With MAKAFSTLASHIAVVILFFGPCIFIYVWPFTISPLD as the binder, how does the enrichment score read?
Answer: -2.68

Question: For PPLSSSPGGTSPSPPPRTPAIPFAPYGLHHTSLLKP, which enrichment score is on record?
Answer: 0.135

Question: TGVQLLAVSHVGIKLLRYGQGWPGGRRAAAGPACIQ was tested. Which enrichment score did it give?
Answer: 3.52

Question: For HYSDPFILFLFLLAFSTATIMLCFLLSTFFSKASLA, which enrichment score is on record?
Answer: 0.63

Question: How did the enrichment score turn out when MTHKSLVYLWFLCSSVALALGALTVWHAVLISRSET was run?
Answer: 4.7

Question: Which enrichment score does the source give for GYTSLGIFLLGFLFWNIDNIFCESLRNFRKKVPPII here?
Answer: -0.695

Question: For MRKSPGLSDCLWAWILLLSTLTGRSYGQPSLQDELK, which enrichment score is on record?
Answer: 0.0916

Question: For FRGPDWLCRVVKHLQVFGMFASAYMLVVMTADRYIA, which enrichment score is on record?
Answer: 2.49

Question: For TYLCCILMLLTPIMVISSSYTLILHLIHRMNSAAGR, which enrichment score is on record?
Answer: 4.53

Question: Which enrichment score does the source give for MPWILMLLLTMGQGVVILALSIVLWRQRVRGAPGRD here?
Answer: 3.49

Question: Which enrichment score does the source give for QLNELLLFAVGFIMAGTPLVLIITAYSHVAAAVLRI here?
Answer: 2.13

Question: LNWIQWASLLTLFLSIVALTAGTKTLQHNLAGRGFH was tested. Which enrichment score did it give?
Answer: 1.21

Question: SNPYQTFLGPTGVYTWNGLGASFVFVTMILFVANTQ was tested. Which enrichment score did it give?
Answer: 1.9
